Measured values taken from PubChem BioAssay AID493014 (National Center for Advancing Translational Sciences (NCATS), 2011).
This is one part of the list. The main result of the screen is listed elsewhere. These columns were measured beside it and carry no call. Compounds called inactive in the main read-out are mostly missing here. Potencies come from curve fits of mixed quality, noted in brackets.

Experiment: qHTS Assay to Find Inhibitors of Chronic Active B-Cell Receptor Signaling
Details: ABC-DLBCL IkBa-CBG/CBR reporter, luminescence ratio (green luciferase fused to IkBa over red control in TMD8 lymphoma cells), 4 h
Procedure, shortened: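 Doxycycline induced both beetle luciferases in TMD8 lymphoma cells; IKK-driven degradation limits the IkappaBalpha-fused green signal, while red luminescence normalises for cell number and nonspecific effects. Compounds tested up to 46 uM, 4 hrs.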

[1] = measured here: CBR red luminescence, cell number
[2] = measured here: IkBa-CBG green luminescence

## COc1ccc(CCC(=O)OCC(=O)Nc2sccc2C(N)=O)cc1OC
[1]
  AC50: 3.66 µM [falling, partial curve, poor fit]

## COc1ccc(NC(=O)N(Cc2cc3cc(OC)c(OC)cc3[nH]c2=O)CC2CCCO2)cc1 (stereo unspecified)
[1]
  AC50: 0.631 µM [rising, partial curve, poor fit]

## CC(=O)Nc1ccc(Oc2cncc(Cl)c2)nc1
[1]
  AC50: 35.5 µM [rising, single point]

## O=C(CCC(=O)Nc1cccc2ccccc12)N/N=C/c1ccco1
[1]
  AC50: 1.46 µM [rising, full curve]

## N#CCCCC#Cc1ccc2c(c1)COc1c3ccccc3nn1-2
[1]
  AC50: 0.326 µM [rising, full curve, poor fit]

## COc1ccc(CCNC(=O)C(=O)NCC2OCCN2S(=O)(=O)c2cc(F)ccc2F)cc1OC (stereo unspecified)
[1]
  AC50: 35.5 µM [rising, single point]

## COc1cc2ccccc2cc1C(=O)Nc1ccccc1N1CCCC1
[1]
  AC50: 7.31 µM [falling, partial curve]

## COc1ccccc1N(CC(=O)NCc1ccccc1C)S(=O)(=O)c1ccc(C)cc1
[1]
  AC50: 35.5 µM [falling, single point]

## CN(CC1COCCO1)C(=O)c1cc(COc2c(F)cccc2F)on1 (stereo unspecified)
[1]
  AC50: 20 µM [rising, partial curve, poor fit]

## Nc1c(-c2ccccc2)c(CN2CCOCC2)nn1-c1ccc(F)cc1
[1]
  AC50: 6.51 µM [rising, single point]

## Cc1ccc(NC(=O)C2C(c3ccccc3)C2(Cl)Cl)c(C)c1 (stereo unspecified)
[1]
  AC50: 2.06 µM [falling, partial curve, poor fit]

## CCS(=O)(=O)N1Cc2ccccc2CC1C(=O)Nc1ccc(F)c(F)c1F (stereo unspecified)
[1]
  AC50: 2.82 µM [falling, full curve]

## Cc1cccc(OCc2nnc(SCc3nc4ccccc4c(=O)[nH]3)o2)c1
[1]
  AC50: 5.8 µM [rising, partial curve, poor fit]

## O/N=C/c1ccccc1OCc1ccc(Cl)cc1
[1]
  AC50: 31.6 µM [falling, single point]

## Cc1ccc(C(=O)/C=C/c2ccccc2[N+](=O)[O-])cc1
[1]
  AC50: 17.8 µM [falling, single point]

## O=C(CC1N=C2c3ccccc3N=C(SCc3cccc(Cl)c3)N2C1=O)NCc1ccc2c(c1)OCO2 (stereo unspecified)
[1]
  AC50: 12.6 µM [falling, partial curve, poor fit]

## O=C(c1cc2nc(-c3ccco3)cc(C(F)(F)F)n2n1)N1CCN(c2ccccc2)CC1
[1]
  AC50: 25.9 µM [rising, single point]

## COc1cc(Nc2nc(SCC(=O)c3ccc(Br)cc3)nc3ccccc23)cc(OC)c1
[1]
  AC50: 5.62 µM [falling, full curve, poor fit]

## CN(CCOc1ccc(F)cc1)Cc1ccccc1
[1]
  AC50: 22.4 µM [rising, single point]

## N#C/C(=C\C1CC=CCC1)c1nc2ccccc2[nH]1 (stereo unspecified)
[1]
  AC50: 35.5 µM [falling, single point]

## CCC(C)NCCOc1ccc(C)cc1[N+](=O)[O-] (stereo unspecified)
[1]
  AC50: 0.794 µM [rising, partial curve, poor fit]

## CCOC(=O)c1sc(=S)n(-c2ccc(OC)cc2)c1C
[1]
  AC50: 3.98 µM [rising, full curve, poor fit]

## O=C(NN=Cc1cccc([N+](=O)[O-])c1)c1cc(-c2cccnc2)nc2ccccc12
[1]
  AC50: 0.58 µM [rising, full curve, poor fit]

## Cc1ccc(C)c(OCCNc2ccc([N+](=O)[O-])cn2)c1
[1]
  AC50: 1 µM [rising, partial curve, poor fit]

## COc1ccc(CCC(=O)Nc2ccc(-c3noc(-c4ccc(OC)c(OC)c4)n3)cc2)cc1
[1]
  AC50: 1.84 µM [rising, partial curve, poor fit]

## CCOC(=O)c1ccc(N2C(=O)C=CC2=O)cc1
[1]
  AC50: 20.6 µM [falling, partial curve, poor fit]

## O=C(Nc1ccc(Cl)c(Cl)c1)N1CCSC1c1ccco1 (stereo unspecified)
[1]
  AC50: 35.5 µM [falling, single point]

## N#Cc1cc2ccccc2nc1SCc1ccccn1
[1]
  AC50: 35.5 µM [falling, single point]

## O=C(N/N=C/c1cn(CC(=O)N2CCOCC2)c2ccccc12)c1cccnc1
[1]
  AC50: 22.4 µM [falling, single point]

## N#C/C(=C(/O)C(Cl)(Cl)Cl)c1nc2ccccc2[nH]1
[1]
  AC50: 11.2 µM [falling, single point]

## COc1ccc(O)c(C(=O)CC(=O)c2ccccc2C)c1
[1]
  AC50: 35.5 µM [falling, single point]

## Cc1ccc2c(CN3CCN(S(=O)(=O)c4ccccc4C(F)(F)F)CC3)cc(=O)oc2c1C
[1]
  AC50: 0.651 µM [rising, full curve, poor fit]

## COc1ccc(S(=O)(=O)N2CCOC2CNC(=O)C(=O)NCCCn2ccnc2)cc1OC (stereo unspecified)
[1]
  AC50: 29.1 µM [rising, single point]

## Cc1cc(-c2nnc(CCC(=O)N3CCN(Cc4cccc(F)c4)CC3)o2)c(C)o1
[1]
  AC50: 35.5 µM [rising, partial curve, poor fit]

## O=C(CC1CCCCC1)NCc1cn2ccsc2n1
[1]
  AC50: 11.2 µM [rising, partial curve]

## Cc1c(/C=N\NC(=O)C2COc3ccccc3O2)c2ccccc2n1C (stereo unspecified)
[1]
  AC50: 3.26 µM [rising, full curve]
[2]
  AC50: 2.91 µM [falling, full curve]

## CCC(=O)Nc1ccc(SC#N)cc1C
[1]
  AC50: 20.6 µM [rising, partial curve]
[2]
  AC50: 16.4 µM [falling, partial curve]

## CCc1ccc(OCCNC(=O)c2ccco2)cc1
[1]
  AC50: 7.94 µM [rising, partial curve, poor fit]

## CCOC(=O)C1CCCN(C(=O)c2ccc(-c3ccc([N+](=O)[O-])cc3)o2)C1 (stereo unspecified)
[1]
  AC50: 23.1 µM [falling, single point]

## Cc1nc(N2CCN(C(=O)c3ccco3)CC2)c2c3c(sc2n1)CC(C)CC3 (stereo unspecified)
[1]
  AC50: 14.1 µM [falling, partial curve]

## O=C(N/N=C1\CC2CC=CC12)c1ccccc1Cl (stereo unspecified)
[1]
  AC50: 14.1 µM [falling, partial curve, poor fit]

## Cc1onc(C(=O)Nc2ccc(OC(F)(F)F)cc2)c1[N+](=O)[O-]
[1]
  AC50: 1.12 µM [rising, full curve, poor fit]

## CCN(CC)c1ccc(-n2c(O)c(C=C3N=c4ccccc4=N3)sc2=S)cc1
[1]
  AC50: 2.59 µM [falling, full curve]

## O=C(/C=C/c1ccccc1)NC(=S)NNC(=O)c1cccnc1
[1]
  AC50: 14.1 µM [falling, partial curve]

## CCN(CC)C(=O)CCC(=O)Nc1ccc(C(=O)OC)cc1
[1]
  AC50: 23.1 µM [falling, partial curve, poor fit]

## Clc1ccc(SCc2cn3cccnc3n2)cc1
[1]
  AC50: 0.794 µM [rising, full curve, poor fit]

## O=C(CCNC(=O)N1CCn2c1nc1ccccc12)NCc1ccccc1Cl
[1]
  AC50: 35.5 µM [falling, single point]

## O=C1c2ccccc2NC(c2cnc3ccccc3n2)N1O (stereo unspecified)
[1]
  AC50: 5.62 µM [falling, full curve]

## CC(c1nc2ccccc2n1Cc1ccccc1)N1CCCCC1 (stereo unspecified)
[1]
  AC50: 2.51 µM [falling, full curve, poor fit]

## COc1ccccc1NC(=O)c1ccc(Cl)c(S(=O)(=O)NCc2ccco2)c1
[1]
  AC50: 16.4 µM [rising, partial curve]

## COCCn1c(C)cc(C(=O)COC(=O)C2CC(=O)N(CCc3ccc(OC)c(OC)c3)C2)c1C (stereo unspecified)
[1]
  AC50: 1.46 µM [rising, full curve]

## O=c1c2ccccc2[nH]c(=S)n1CCCN1CCC(Cc2ccccc2)CC1
[1]
  AC50: 35.5 µM [falling, single point]

## O=S(=O)(NCc1ccc(F)cc1)c1ccccc1Br
[1]
  AC50: 0.259 µM [rising, full curve, poor fit]

## N#CC1=C(N)Oc2n[nH]c(-c3cccnc3)c2C1c1ccc([N+](=O)[O-])o1 (stereo unspecified)
[1]
  AC50: 15.8 µM [falling, single point]
[2]
  AC50: 17.8 µM [rising, partial curve, poor fit]

## O=C(NC1CCCCC1)C(c1ccncc1)N(C(=O)c1ccco1)c1ccc(F)cc1 (stereo unspecified)
[1]
  AC50: 11.2 µM [falling, partial curve, poor fit]

## COc1ccc(OC)c(CNC(=O)c2ccc(Sc3ccc(C)cc3)c(N)c2)c1
[1]
  AC50: 0.794 µM [falling, partial curve, poor fit]

## CS(=O)(=O)c1ccc(Cl)c(NC(=O)C2CCN(S(=O)(=O)c3cccs3)CC2)c1
[1]
  AC50: 29.1 µM [falling, partial curve, poor fit]

## Cc1ccc(NCc2nc3ccccc3n2C)cc1
[1]
  AC50: 0.116 µM [rising, full curve, poor fit]

## CC(C)(C)OC(=O)CNC(=O)c1[nH]cnc1C(=O)Nc1ccc(CNC(=O)OC(C)(C)C)cc1
[1]
  AC50: 3.98 µM [rising, partial curve, poor fit]

## COc1cccc(C(=O)CSc2nnc(-c3cccs3)o2)c1
[1]
  AC50: 3.66 µM [falling, partial curve, poor fit]

## COc1ccc(OC)c(C(=O)COC(=O)CNC(=O)c2ccccc2)c1
[1]
  AC50: 23.1 µM [rising, partial curve, poor fit]

## CCN(C(=O)c1ccco1)c1nc(-c2ccc(OC)cc2)cs1
[1]
  AC50: 2.82 µM [rising, full curve, poor fit]

## CC(C)c1nc(SCC(=O)NCC2CCCO2)c2c(=O)n(C)c(=O)n(C)c2n1 (stereo unspecified)
[1]
  AC50: 17.8 µM [rising, partial curve, poor fit]
